Source: paper PMC4496399
Results are given in words; binding and its absence hold for the method and conditions named. Binding seen in cells or lysates may run through a third protein. Some entries that bind do so weakly or less than the wild type.

Chains of the proteins cited; added tags and fusions are not shown. Residues count along the entry.
UniProt P04629, residues 33-796: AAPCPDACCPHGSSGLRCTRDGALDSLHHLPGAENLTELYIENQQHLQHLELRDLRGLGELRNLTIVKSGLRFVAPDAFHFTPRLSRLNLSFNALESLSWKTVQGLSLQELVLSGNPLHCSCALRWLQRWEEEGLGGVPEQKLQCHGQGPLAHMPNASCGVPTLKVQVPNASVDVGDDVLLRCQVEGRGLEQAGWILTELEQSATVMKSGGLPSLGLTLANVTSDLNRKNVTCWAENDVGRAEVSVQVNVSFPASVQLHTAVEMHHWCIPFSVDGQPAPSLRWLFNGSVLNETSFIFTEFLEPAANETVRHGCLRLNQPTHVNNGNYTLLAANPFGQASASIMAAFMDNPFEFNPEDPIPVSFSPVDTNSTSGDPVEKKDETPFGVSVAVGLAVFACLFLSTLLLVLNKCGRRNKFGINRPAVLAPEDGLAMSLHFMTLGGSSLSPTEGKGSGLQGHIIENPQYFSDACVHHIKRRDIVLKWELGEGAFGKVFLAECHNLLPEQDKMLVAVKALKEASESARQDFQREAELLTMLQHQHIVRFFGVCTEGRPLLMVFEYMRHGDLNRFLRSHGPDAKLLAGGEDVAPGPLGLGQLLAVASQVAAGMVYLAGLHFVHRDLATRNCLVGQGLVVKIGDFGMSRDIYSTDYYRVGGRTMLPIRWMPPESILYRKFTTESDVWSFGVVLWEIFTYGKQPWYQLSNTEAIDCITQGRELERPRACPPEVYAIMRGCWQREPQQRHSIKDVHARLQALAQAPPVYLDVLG
UniProt P16070, residues 21-742: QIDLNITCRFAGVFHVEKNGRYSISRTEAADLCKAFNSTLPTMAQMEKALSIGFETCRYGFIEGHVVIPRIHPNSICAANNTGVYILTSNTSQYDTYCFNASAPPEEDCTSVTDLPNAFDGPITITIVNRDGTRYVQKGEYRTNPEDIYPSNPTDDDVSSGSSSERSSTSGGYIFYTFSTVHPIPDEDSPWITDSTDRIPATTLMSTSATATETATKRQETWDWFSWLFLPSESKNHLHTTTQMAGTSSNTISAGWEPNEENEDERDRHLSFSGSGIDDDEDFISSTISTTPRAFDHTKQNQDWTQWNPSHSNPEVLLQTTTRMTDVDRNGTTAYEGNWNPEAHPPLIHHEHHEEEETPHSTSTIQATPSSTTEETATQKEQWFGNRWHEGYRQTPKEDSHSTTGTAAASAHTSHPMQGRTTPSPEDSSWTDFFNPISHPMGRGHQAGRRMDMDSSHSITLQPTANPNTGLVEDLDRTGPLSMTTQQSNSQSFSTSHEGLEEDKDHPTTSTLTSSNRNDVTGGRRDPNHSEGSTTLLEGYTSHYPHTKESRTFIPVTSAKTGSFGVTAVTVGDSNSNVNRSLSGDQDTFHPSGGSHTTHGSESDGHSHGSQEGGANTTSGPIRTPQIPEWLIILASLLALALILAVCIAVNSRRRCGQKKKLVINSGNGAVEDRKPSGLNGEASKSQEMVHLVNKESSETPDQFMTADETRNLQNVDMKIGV

Tests used:
[1] = target: HA-TrkA (UniProt P04629); experiment: proximity ligation; brightfield PLA on HA-TrkA MDA-MB-231 tumor xenografts (SCID mice, control group)
[2] = target: HA-TrkA (UniProt P04629); experiment: co-IP; IP from cleared MDA-MB-231 lysates (40 mM HEPES pH 7.5, 120 mM NaCl, 1% Triton X-100, 0.1% SDS) with anti-HA or anti-CD44 and protein-G agarose, 4°C; immunoblot; cells untreated or treated with NGF (16 nM) for 5 or 30 min
[3] = target: HA-TrkA (UniProt P04629); experiment: proximity ligation; in situ PLA on paraformaldehyde-fixed cells without membrane permeabilization; rabbit anti-HA or rabbit anti-TrkA and mouse anti-CD44; cells untreated or treated with NGF (16 nM) for 5 or 30 min, with DMSO or K252a (10 nM) pre-incubation
[4] = target: TrkA (endogenous, PC3 prostate cancer cells) (human (endogenous in PC3)) (UniProt P04629); experiment: as above
[5] = target: CD44 antigen (human (endogenous in MDA-MB-231 and PC3)) (UniProt P16070); experiment: co-IP; IP from cleared MDA-MB-231 lysates (40 mM HEPES pH 7.5, 120 mM NaCl, 1% Triton X-100, 0.1% SDS) with anti-HA or anti-CD44 and protein-G agarose, 4°C; immunoblot; cells untreated or treated with NGF (16 nM) for 5 or 30 min

Row | Substance | binding [1] | binding [2] | binding [3] | binding [4] | binding [5]
1 | CD44 antigen (from UniProt P16070 21-742) (receptor) | binds | binds | binds | binds | –
2 | HA-TrkA (from UniProt P04629 33-796) (receptor) | – | – | – | – | binds
